Laboratory results taken from PubChem BioAssay AID1688 (National Center for Advancing Translational Sciences (NCATS), 2009).
The whole screen tested about 220,000 compounds, of which about 2,400 (1.1%) were called active. This list was built around the results that the source calls inconclusive (neither active nor inactive); the mix of calls is not that of the screen. Calls follow the shape of the dose curve; as a rule, active = well fitted inhibition curve with a large enough effect; inconclusive = small, poorly fitted or top-dose-only effect, or effect the other way; inactive = no such curve, though single readings can be large or run the other way. A potency beside an inconclusive call is a rough fit, not a confirmed value.

Assay: qHTS Multiplex Assay to Identify Dual Action Probes in a Cell Model of Huntington: Aggregate Formation (GFP); also: nearly all actives have a fitted effect of over 60% in size
Details: PC12 HttQ103-GFP aggregates, Acumen cytometry, 40 h; activity change, negative = inhibition: at 46.1 µM (top of the series) unless noted
How it was run: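 Multiplexed with ATP-based cell death, this channel scores GFP aggregates in PC12 cells expressing inducible HTTex1-Q103-GFP. Induction used 100 nM tebufenozide; compounds were tested in concentration series.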
% is scaled to controls: 0 for no effect and ±100 for the full control effect; potency is read from the fitted curve at half-maximal effect.

Q: With `O=C1CC(N2C(=O)/C(=C/C=C/c3ccccc3)SC2=S)C(=O)N1c1ccccc1` (configuration not stated) as the compound, how does the Potency read?
A: inconclusive: 10 µM [activator, partial curve]

Q: Which Potency does the source give for `CCOC(=O)Cc1c(C)nc2c(-c3ccc(Cl)cc3)c(C)[nH]n2c1=O` here?
A: active: 17.8 µM

Q: For `O=C(COc1ncnc2ccc(Br)cc12)Nc1ccc(N2CCOCC2)cc1`, which Potency is on record?
A: inactive

Q: Which activity change, negative = inhibition does the source give for `C(=C\c1ccco1)/c1ccc2ccccc2n1` here?
A: inactive: -9.03% [at 9.22 µM]

Q: With `CN(C)CCNc1c(N)c(=O)oc2ccccc12` as the compound, how does the Potency read?
A: inconclusive: 5.62 µM [activator, single point]

Q: Which Potency does the source give for `Cn1c(=O)c2c(nc(NCCc3ccccc3)n2Cc2ccccc2)n(C)c1=O` here?
A: inconclusive: 35.5 µM [inhibitor, partial curve]

Q: Which activity change, negative = inhibition does the source give for `COc1ccc(-c2nn(CCC#N)cc2C=C(C#N)C#N)cc1` here?
A: inactive: -7.42% [at 9.22 µM]

Q: For `COc1cc(/C=C2\C(=O)ON=C2c2ccccc2)cc(Cl)c1O`, which Potency is on record?
A: inactive

Q: Which Potency does the source give for `CC1(C)CC(N2CCCC2)=CC(=[N+]2CCCCCC2)C1` here?
A: active: 2 µM

Q: Which Potency does the source give for `CCn1c(C)nc2cc(S(=O)(=O)C(F)(F)F)ccc21` here?
A: inconclusive: 35.5 µM [inhibitor, single point]

Q: For `Cc1cc(C)nc(Sc2nc(Nc3ccccc3)nc(Sc3nc(C)cc(C)n3)n2)n1`, which Potency is on record?
A: inconclusive: 17.8 µM [activator, single point]

Q: For `O=C(CS(=O)(=O)c1cccc(C(F)(F)F)c1)Nc1ccccc1Cl`, which Potency is on record?
A: inactive

Q: With `CC(=O)c1ccc(N2CCN(C(=S)Nc3cc(C)ccc3C)CC2)cc1` as the compound, how does the Potency read?
A: inactive

Q: For `CCc1ccc(CC2S/C(=C(\C#N)C(C)=O)NC2=O)cc1` (configuration not stated), which Potency is on record?
A: inconclusive: 35.5 µM [inhibitor, single point]

Q: For `O=C(CCS(=O)(=O)c1ccccc1)Nc1nc(-c2cccs2)cs1`, which Potency is on record?
A: inconclusive: 31.6 µM [activator, single point]

Q: For `C#CC[N+]1(CC#Cc2cccc(C)c2)CCCCC1`, which Potency is on record?
A: inconclusive: 11.2 µM [inhibitor, partial curve, poor fit]

Q: Which Potency does the source give for `CCc1ccc(S(=O)(=O)NCc2cn3ccccc3n2)s1` here?
A: inconclusive: 28.2 µM [inhibitor, partial curve]

Q: For `O=c1oc(Nc2ccccc2F)nc2ccccc12`, which Potency is on record?
A: inconclusive: 35.5 µM [activator, partial curve]

Q: For `COc1cc(C(=O)CCN2CCC(c3ccccc3)C2)cc(OC)c1OC` (configuration not stated), which Potency is on record?
A: inconclusive: 35.5 µM [inhibitor, single point]

Q: For `C/C(=N\NC(=O)Cn1nc(C)c(Br)c1C)c1cccs1`, which Potency is on record?
A: inconclusive: 12.6 µM [activator, single point]

Q: For `CC(C)c1ccc(N2CCN(C(=O)c3ccccc3NC(=O)/C=C(\C(=O)O)c3ccccc3)CC2)cc1`, which Potency is on record?
A: inconclusive: 22.4 µM [inhibitor, single point]

Q: With `CCN(CC)c1ncnc2ccc(Br)cc12` as the compound, how does the Potency read?
A: active: 12.6 µM

Q: Which Potency does the source give for `O=C(Nc1nnc(-c2ccncc2)o1)c1ccc(Br)s1` here?
A: active: 11.2 µM

Q: Which Potency does the source give for `CCOC(=O)N1CCC(n2c(=S)[nH]c3ccccc3c2=O)CC1` here?
A: inconclusive: 2.24 µM [activator, partial curve, poor fit]

Q: With `CCCN1C(=O)/C(=C/c2cc(C)n(C)c2C)SC1=Nc1ccc(OCC)cc1` as the compound, how does the Potency read?
A: inactive

Q: With `Cc1ccc(-c2cc(-c3ccccc3)no2)c(O)c1` as the compound, how does the Potency read?
A: inactive

Q: Which Potency does the source give for `CCN(CC)S(=O)(=O)c1ccc(N2CCCC2)c(NC(=O)Cc2ccc(OC)cc2)c1` here?
A: inactive

Q: Which Potency does the source give for `O=C(OCCN1C(=O)c2cccc3c(N4CCOCC4)ccc(c23)C1=O)c1cccc(Cl)c1` here?
A: inconclusive: 0.562 µM [inhibitor, partial curve, poor fit]

Q: For `CCCCC(CCCCl)C(=O)Nc1ccccc1` (configuration not stated), which activity change, negative = inhibition is on record?
A: inactive: -1.41% [at 9.22 µM]

Q: For `c1csc(-c2csc3ncnc(NCCCN4CCOCC4)c23)c1`, which Potency is on record?
A: active: 7.94 µM

Q: With `O=C(Nc1cccs1)Nc1ccccc1Br` as the compound, how does the Potency read?
A: inconclusive: 8.91 µM [inhibitor, partial curve]

Q: Which Potency does the source give for `CCOC(=O)C1=C(CN2CCc3ccccc32)NC(=O)NC1c1ccc(Cl)cc1` (configuration not stated) here?
A: inconclusive: 14.1 µM [inhibitor, single point]

Q: With `CCCC(=O)Nc1ccc(N2CCN(C(=O)c3cccs3)CC2)cc1` as the compound, how does the Potency read?
A: inconclusive: 22.4 µM [inhibitor, single point]

Q: Which Potency does the source give for `CNC(=S)N/N=C/c1c(Cl)cccc1Cl` here?
A: inconclusive: 7.94 µM [activator, partial curve]

Q: For `CCCCc1cc(=O)oc2cc(OCC(=O)N3CCc4ccccc43)ccc12`, which Potency is on record?
A: inactive

Q: For `Cc1cccc(-n2c3nc(=O)[nH]c(=O)c-3cc3c(C)nn(-c4ccccc4)c32)c1`, which Potency is on record?
A: inconclusive: 12.6 µM [activator, single point]

Q: For `COc1ccc(C(Nc2ccccn2)c2oc(CO)cc(=O)c2O)cc1` (configuration not stated), which Potency is on record?
A: inactive

Q: Which Potency does the source give for `Cc1csc(SCC(=O)Nc2sccc2C(N)=O)n1` here?
A: inactive

Q: Which Potency does the source give for `CC(C)CSC1=NSC2=NC(=O)/C(=C\c3coc4ccccc4c3=O)C(=N)N12` here?
A: inactive

Q: For `CCn1c(SCC(=O)N(C(C)C)C(C)C)nnc1-c1cc2ccccc2cc1O`, which Potency is on record?
A: inconclusive: 35.5 µM [inhibitor, single point]

Q: For `CCCCc1ccc(N2C(=O)[C@@H]3C(CC(N)=O)NC4(C(=O)Nc5ccc(F)cc54)[C@@H]3C2=O)cc1` (some centres not stated), which Potency is on record?
A: inactive

Q: For `Cn1c(=NC(=O)c2cnccn2)sc2ccccc21`, which Potency is on record?
A: inconclusive: 3.98 µM [inhibitor, single point]

Q: For `CCOC(=O)C1=C(C)NC(=O)NC1c1ccc(OCC(=O)OC)c(OC)c1` (configuration not stated), which Potency is on record?
A: inactive

Q: Which Potency does the source give for `c1ccc(-c2cc3c(NCC4COc5ccccc5O4)ncnc3s2)cc1` (configuration not stated) here?
A: inconclusive: 35.5 µM [inhibitor, single point]

Q: For `C=CCNC(=O)Nc1ccc(Br)cc1Cl`, which Potency is on record?
A: inconclusive: 11.2 µM [inhibitor, single point]

Q: With `COc1ccc(/C=C2\SC(=S)N(NC(=O)c3ccncc3)C2=O)cc1OC` as the compound, how does the Potency read?
A: inconclusive: 0.891 µM [activator, full curve, poor fit]

Q: For `COc1ccc(OC(=O)CN2C(=O)C3C4CCC(C4)C3C2=O)cc1` (configuration not stated), which Potency is on record?
A: inactive

Q: Which Potency does the source give for `O=C(Nc1ccc(N2CCCCC2)cc1)c1ccc(F)cc1` here?
A: inconclusive: 0.794 µM [activator, single point]

Q: Which Potency does the source give for `CN(CC(=O)Nc1cc([N+](=O)[O-])ccc1Cl)Cc1ccc(Br)cc1` here?
A: inactive

Q: Which Potency does the source give for `O=C(CC1NCCc2ccccc21)Nc1ccc(Oc2ccccc2)cc1` (configuration not stated) here?
A: inconclusive: 20 µM [inhibitor, single point]

Q: For `O=C(CSc1nnnn1-c1ccc2c(c1)OCCO2)Nc1nc2c(s1)CCCC2`, which Potency is on record?
A: inconclusive: 25.1 µM [inhibitor, single point]

Q: For `COc1ccc(/C=C2\CCCC3C2=NC(=S)NC3c2ccc(OC)cc2)cc1` (configuration not stated), which Potency is on record?
A: inactive

Q: With `COc1cc(O)cc2cc3c(c(O)c12)C(=O)CC(C)(O)O3` (configuration not stated) as the compound, how does the Potency read?
A: inconclusive: 3.16 µM [inhibitor, single point]

Q: For `CC1CCN(c2ccc(S(=O)(=O)NC3=NCCCCC3)cc2[N+](=O)[O-])CC1`, which Potency is on record?
A: inconclusive: 10 µM [inhibitor, partial curve]

Q: With `COC(=O)Cc1c(O)ccn(CCc2c[nH]c3ccc(OC)cc23)c1=O` as the compound, how does the activity change, negative = inhibition read?
A: inactive: -3.59% [at 9.22 µM]

Q: With `CSc1cccc(NS(=O)(=O)c2ccc3c(c2)oc(=O)n3C)c1` as the compound, how does the Potency read?
A: inconclusive: 31.6 µM [inhibitor, single point]

Q: With `COc1cccc(NC(=O)CSc2c3c(nc4ccccc24)CCCC3)c1` as the compound, how does the Potency read?
A: inconclusive: 7.94 µM [activator, partial curve]

Q: For `Cc1cc([N+](=O)[O-])cnc1NC(C)c1ccccc1` (configuration not stated), which Potency is on record?
A: inconclusive: 35.5 µM [inhibitor, single point]

Q: With `O=C(CN1CCCc2ccccc21)N/N=C/c1ccccc1O` as the compound, how does the Potency read?
A: inconclusive: 3.16 µM [inhibitor, single point]

Q: With `CC1=C(C(=O)Nc2ccc(F)c(F)c2)C(c2cccs2)NC(=S)N1` (configuration not stated) as the compound, how does the Potency read?
A: inactive

Q: With `CCn1c(SCc2nc(-c3ccccc3)no2)nnc1-c1cccs1` as the compound, how does the Potency read?
A: inactive

Q: Which Potency does the source give for `Cc1c(C=O)c2ccccc2n1CC(=O)NC(C)c1ccccc1` (configuration not stated) here?
A: inconclusive: 14.1 µM [inhibitor, single point]

Q: Which Potency does the source give for `COC(=O)C1=C(C)Nc2c(c(=O)n(C)c(=O)n2C)C1c1ccncc1` (configuration not stated) here?
A: inconclusive: 25.1 µM [inhibitor, partial curve]

Q: With `COc1ccc(-c2noc(CN(C)S(=O)(=O)c3ccc(C)cc3)n2)cc1` as the compound, how does the Potency read?
A: inconclusive: 35.5 µM [inhibitor, single point]

Q: Which Potency does the source give for `CCOC(=O)C1=C(C)N(C)C(C)=C(C(=O)OCC)C1c1ccc(C(=O)OC)cc1` here?
A: inconclusive: 0.562 µM [activator, full curve, poor fit]

Q: With `CC(C)(C)NC(=S)NC(=O)C12CCC3CC(CC(C3)C1)C2` as the compound, how does the Potency read?
A: inconclusive: 12.6 µM [inhibitor, single point]

Q: For `Cc1ccnc(SCC(=O)Nc2sc3c(c2C#N)CCC(C(C)(C)C)C3)n1` (configuration not stated), which Potency is on record?
A: inconclusive: 7.08 µM [inhibitor, partial curve]

Q: With `CSc1nc(SCCO)c2sc3nc(-c4ccco4)c4c(c3c2n1)CC(C)(C)OC4` as the compound, how does the Potency read?
A: inconclusive: 35.5 µM [activator, partial curve]

Q: Which Potency does the source give for `COc1ccc(C)cc1N1C(=N)/C(=C2/Nc3ccccc3S2)C(c2ccccc2)C1=O` (configuration not stated) here?
A: inconclusive: 12.6 µM [inhibitor, single point]

Q: For `CCN(CC)S(=O)(=O)c1ccc(C)c(NC(=O)CNCCN(C(C)C)C(C)C)c1`, which Potency is on record?
A: inactive

Q: With `Cc1c(C(=O)Nc2ccc(Oc3ccccc3)cc2)sc2nc3n(c(=O)c12)CCC3` as the compound, how does the Potency read?
A: active: 4.47 µM

Q: With `CCOC(=O)N1CCC2(CC1)C(C#N)=C(N)Oc1c2c(C)nn1-c1cccc(Cl)c1` as the compound, how does the Potency read?
A: inconclusive: 12.6 µM [activator, single point]
